Laboratory results reported in PubChem BioAssay AID1347075 (National Center for Advancing Translational Sciences (NCATS), 2019).
Among all 400,000 compounds or so, about 5,500 (1.4%) were called active. This list was built around the results that the source calls inconclusive (neither active nor inactive); the mix of calls is not that of the screen. Calls follow the shape of the dose curve; as a rule, active = well fitted cell-killing curve with a large enough effect; inconclusive = small, poorly fitted or top-dose-only effect, or effect the other way; inactive = flat fitted curve, though single readings scatter. Potencies beside an inconclusive call are fits to weak or partial responses and may not hold up.

Assay: qHTS assay for MDR1-selective chemotherapeutics: Primary screen using the parental adenocarcinoma cell KB-3-1; also: nearly all actives have a fitted effect of over 60% in size
Conditions: KB-3-1 viability, CellTiter-Glo ATP luminescence, 72 h; activity change, negative = cytotoxic: at 46.1 µM (top of the series)
Procedure, shortened: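 KB-3-1 parental drug-naive adenocarcinoma cells in DMEM/10% FBS, incubated 72 h at 37 C with pin-transferred compounds across a concentration series. Viability by CellTiter-Glo luminescence; concentration-response curves fitted after normalization.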
% is scaled to controls: 0 for no effect and ±100 for the full control effect; potency is read from the fitted curve at half-maximal effect.

Question: With `CCOc1ccc(C(=O)NCC(=O)Nc2ncccc2C)cc1OCC` as the compound, how does the Potency read?
Answer: Its Potency is inconclusive: 8.2 µM [rising, partial curve, poor fit].

Question: With `O=CNc1ccc2c(c1)Cc1cc([N+](=O)[O-])ccc1-2` as the compound, how does the Potency read?
Answer: Its Potency is active: 2.31 µM.

Question: With `COc1ccc(CCNC2CC(=O)N(CCc3ccc(OC)c(OC)c3)C2=O)cc1OC` (centres undefined) as the compound, how does the Potency read?
Answer: The Potency was “inactive”.

Question: With `COc1ccc(NS(=O)(=O)c2ccc(N3CCN(CCO)CC3)c([N+](=O)[O-])c2)cc1` as the compound, how does the Potency read?
Answer: The Potency was inconclusive: 29.1 µM [cytotoxic, single point].

Question: For `Cc1ccc(-c2nn(CC(=O)NCc3cc(-c4nn(C)c(=O)c5ccccc45)ccc3C)c(=O)c3ccccc23)cc1`, which Potency is on record?
Answer: Its Potency is active: 23.1 µM.

Question: With `COc1cccc(NC(=O)Cn2c(=O)n(Cc3ccc(F)cc3)c(=O)c3sc4ccccc4c32)c1` as the compound, how does the Potency read?
Answer: The Potency was “inactive”.

Question: With `Cc1nc2ccccc2n1Cc1ccc(Cl)cc1` as the compound, how does the Potency read?
Answer: Its Potency is inconclusive: 29.1 µM [cytotoxic, single point].

Question: For `Cc1ccc(/C=C/C(=O)N2CCN(c3ncccn3)CC2)o1`, which Potency is on record?
Answer: The Potency was inconclusive: 20.6 µM [cytotoxic, single point].

Question: With `C=CCOC(=O)N1CCC2CC1c1cc(-c3cccc(C)c3)ccc12` (centres undefined) as the compound, how does the Potency read?
Answer: The Potency was “inactive”.

Question: For `O=C1C2C(c3ccccc3)CC=CC2[C@H](c2cccc([N+](=O)[O-])c2)N1Cc1ccccc1` (some centres undefined), which Potency is on record?
Answer: Its Potency is inconclusive: 29.1 µM [cytotoxic, single point].

Question: Which Potency does the source give for `CCC(C)Sc1ccc(-c2nc3cc(C)ccn3c2NC2CCCCC2)cc1` (centres undefined) here?
Answer: The Potency was inconclusive: 29.1 µM [cytotoxic, single point].

Question: Which Potency does the source give for `CC1Cc2cc(S(=O)(=O)N3CCC(C(=O)NCc4ccco4)CC3)ccc2N1C(=O)C1CCC1` (centres undefined) here?
Answer: The Potency was inconclusive: 29.1 µM [cytotoxic, single point].

Question: For `O=C(NCCN1CCC(n2c(=O)[nH]c3ccccc32)CC1)N1c2ccccc2Sc2ccccc21`, which activity change, negative = cytotoxic is on record?
Answer: The activity change, negative = cytotoxic was inconclusive: -8.7%.

Question: Which Potency does the source give for `COc1cccc(C2C(C(=O)Nc3nc4ccccc4s3)=C(C)NC3=C2C(=O)CC(C)(C)C3)c1OC` (centres undefined) here?
Answer: The Potency was inconclusive: 20.6 µM [cytotoxic, single point].

Question: Which Potency does the source give for `COc1ccc2nc(NC(=O)c3ccc(NC(=O)C4CCCO4)cc3)sc2c1` (centres undefined) here?
Answer: Its Potency is active: 7.31 µM.

Question: Which Potency does the source give for `CN(C)c1cc[n+](CC(=O)Nc2ccc(Oc3ccccc3)cc2)cc1` here?
Answer: The Potency was active: 16.4 µM.

Question: Which Potency does the source give for `COc1cccc(-c2cc3nc(-c4ccccc4)cc(=O)n3[nH]2)c1` here?
Answer: The Potency was active: 5.8 µM.

Question: With `O=C(Cc1ccc(Cl)cc1)NCCc1csc2nc(-c3ccccc3F)nn12` as the compound, how does the Potency read?
Answer: The Potency was “inactive”.

Question: With `COc1ccccc1C(CNC(=O)c1cccc(S(=O)(=O)N2c3ccccc3CC2C)c1)N(C)C` (centres undefined) as the compound, how does the Potency read?
Answer: Its Potency is “inactive”.

Question: Which Potency does the source give for `CN(C)CCOc1ccc(-c2c(-c3ccccc3)sc3ccccc23)cc1` here?
Answer: Its Potency is inconclusive: 29.1 µM [cytotoxic, single point].

Question: With `Cc1ccc(NC(=O)c2cc3c(s2)CCCC3)cc1S(=O)(=O)Nc1ccccc1Cl` as the compound, how does the Potency read?
Answer: Its Potency is inconclusive: 5.17 µM [cytotoxic, full curve, poor fit].

Question: For `Cc1cccc(NC(=S)NC(=O)/C=C/c2ccco2)n1`, which Potency is on record?
Answer: Its Potency is inconclusive: 23.1 µM [cytotoxic, single point].

Question: With `COc1ccc(C(=O)NCC(=O)N/N=C/C(C)=C/c2ccco2)cc1OC` as the compound, how does the Potency read?
Answer: Its Potency is inconclusive: 29.1 µM [cytotoxic, single point].

Question: For `COc1ccc(-c2ccc(C)cc2)cc1[C@H]1[C@H]2C=CC[C@@H](C)[C@@H]2C(=O)N1Cc1ccccc1`, which Potency is on record?
Answer: The Potency was “inactive”.

Question: Which Potency does the source give for `COc1ccc(-n2ncc3c(N4CCN(c5cc(C)ccc5C)CC4)ncnc32)cc1` here?
Answer: Its Potency is “inactive”.

Question: With `CNS(=O)(=O)c1ccc(C)c(S(=O)(=O)NC)c1` as the compound, how does the Potency read?
Answer: The Potency was inconclusive: 8.2 µM [rising, partial curve].

Question: Which activity change, negative = cytotoxic does the source give for `Cc1c(NC(=O)CSCc2ccco2)c(=O)n(-c2ccccc2)n1C` here?
Answer: The activity change, negative = cytotoxic was inconclusive: 1.13%.

Question: With `CCCC(O)(c1ccc(CC)cc1)C(CN1CCOCC1)c1ccccc1` (centres undefined) as the compound, how does the Potency read?
Answer: The Potency was inconclusive: 18.4 µM [cytotoxic, single point].

Question: Which Potency does the source give for `CCCCCn1c(N(C)Cc2ccccc2)nc2c1c(=O)[nH]c(=O)n2C` here?
Answer: Its Potency is “inactive”.

Question: With `N#C/C(=C\c1cccc(NC(=O)c2ccccc2Cl)c1)C(=O)NCCc1ccccc1` as the compound, how does the Potency read?
Answer: Its Potency is inconclusive: 18.4 µM [cytotoxic, single point].

Question: For `COc1ccc(C(=O)c2cc(OC)c(OC)c(OC)c2)cc1OC`, which Potency is on record?
Answer: The Potency was active: 5.8 µM.

Question: For `COc1ccc(NC(=O)c2cc(C3CCCCN3S(C)(=O)=O)on2)c(C)c1` (centres undefined), which Potency is on record?
Answer: The Potency was “inactive”.

Question: For `O=C(CN1CCN(c2ncc(C(F)(F)F)cc2Cl)CC1)N1CCN(c2ncc(C(F)(F)F)cc2Cl)CC1`, which Potency is on record?
Answer: The Potency was inconclusive: 17.8 µM [cytotoxic, partial curve, poor fit].

Question: Which Potency does the source give for `NC(=S)N=Nc1c(O)n(CCCl)c2ccc(Cl)cc12` here?
Answer: Its Potency is inconclusive: 23.1 µM [cytotoxic, single point].

Question: Which Potency does the source give for `O=C(CSc1ccccc1)NNC(=O)c1ccccc1O` here?
Answer: The Potency was “inactive”.

Question: Which Potency does the source give for `O=C1C=C(c2cccc(Br)c2)C[C@@H](c2ccc(Cl)cc2)C1` here?
Answer: Its Potency is “inactive”.

Question: For `COc1cc(NC(=O)c2cc(-c3cc(F)ccc3OC(C)C)n[nH]2)cc(OC)c1OC`, which Potency is on record?
Answer: The Potency was inconclusive: 29.1 µM [cytotoxic, single point].

Question: For `CCOC(=O)c1c(-c2ccccc2)oc2ccc(OCC(O)CNCCN(C)C)cc12` (centres undefined), which Potency is on record?
Answer: Its Potency is inconclusive: 18.4 µM [cytotoxic, single point].

Question: For `CC(=O)c1ccc(NC(=O)CN2C(=O)/C(=C/C(C)=C/c3ccccc3)SC2=S)cc1`, which Potency is on record?
Answer: The Potency was “inactive”.

Question: Which Potency does the source give for `O=C(CSc1nc2ccccc2o1)NC(=O)NCc1ccco1` here?
Answer: The Potency was “inactive”.

Question: For `COc1ccc2c(c1)c(C(=O)N/N=C/c1ccc(OC)c(OC)c1)c(C)n2C`, which Potency is on record?
Answer: Its Potency is “inactive”.

Question: For `CC(=O)N1CCN(c2ccccc2NC(=O)COc2cc(C)ccc2C(C)C)CC1`, which Potency is on record?
Answer: Its Potency is inconclusive: 16.4 µM [cytotoxic, single point].

Question: With `Cc1ccc(C23CC4CC(CC(CN)(C4)C2)C3)cc1` as the compound, how does the Potency read?
Answer: Its Potency is inconclusive: 16.4 µM [cytotoxic, single point].

Question: For `COc1cccc(-c2cnc3c(NC=O)cc(-c4cc(C)c(O)c(C)c4)cn23)c1`, which Potency is on record?
Answer: Its Potency is active: 6.51 µM.

Question: With `COC(=O)c1cccc(NC(=S)N2CCCCC2)c1` as the compound, how does the Potency read?
Answer: The Potency was “inactive”.

Question: With `Cc1ccc2nc(SCc3nc(-c4ccc(Cl)cc4)no3)[nH]c2c1` as the compound, how does the Potency read?
Answer: Its Potency is “inactive”.

Question: With `CC(CNC(=O)c1cnn(-c2ccc(F)cc2)c1-n1cccc1)c1ccccc1` (centres undefined) as the compound, how does the Potency read?
Answer: The Potency was inconclusive: 16.4 µM [cytotoxic, partial curve, poor fit].

Question: Which Potency does the source give for `CN(Cc1cccc(Cl)c1Cl)C(=O)c1ccccc1SCC(=O)N1CCCC1` here?
Answer: Its Potency is inconclusive: 32.6 µM [cytotoxic, single point].

Question: For `COCCCn1c(=N)c(C(=O)NCC2CCCO2)cc2c(=O)n3cccc(C)c3nc21` (centres undefined), which activity change, negative = cytotoxic is on record?
Answer: Its activity change, negative = cytotoxic is inconclusive: 0.841%.

Question: Which Potency does the source give for `COc1ccc(-c2n[nH]nc2C2=CC(=O)CC(C)(C)C2)cc1` here?
Answer: The Potency was inconclusive: 29.1 µM [cytotoxic, single point].

Question: For `O=C(/C=C/c1cccnc1)c1ccc(O)cc1`, which Potency is on record?
Answer: Its Potency is inconclusive: 29.1 µM [cytotoxic, single point].

Question: For `Cc1cc(C)cc(N2C(=O)CSC23C(=O)N(Cc2c(F)cccc2Cl)c2ccccc23)c1` (centres undefined), which Potency is on record?
Answer: The Potency was inconclusive: 23.1 µM [cytotoxic, single point].

Question: Which Potency does the source give for `CCCC(C(=O)Nc1ccc2c(C)cc(=O)oc2c1)c1ccccc1` (centres undefined) here?
Answer: Its Potency is inconclusive: 29.1 µM [cytotoxic, single point].

Question: For `Cc1cc2c(cc1S(=O)(=O)Nc1cccc(Cl)c1C)n(C)c(=O)c(=O)n2C`, which Potency is on record?
Answer: The Potency was “inactive”.

Question: Which Potency does the source give for `Fc1ccccc1CN1CCCN(C(=S)Nc2cccc(Cl)c2)C1` here?
Answer: The Potency was inconclusive: 25.9 µM [cytotoxic, single point].

Question: With `Cc1ccc(NS(=O)(=O)c2ccc(NC(=O)CN(c3cc([N+](=O)[O-])ccc3C)S(C)(=O)=O)cc2)c(C)c1` as the compound, how does the Potency read?
Answer: Its Potency is inconclusive: 23.1 µM [cytotoxic, single point].

Question: For `Cc1cccc2nc(-c3ccccn3)c(Nc3ccc(F)cc3)n12`, which Potency is on record?
Answer: The Potency was “inactive”.

Question: Which Potency does the source give for `N/C(=N\OC(=O)c1ccco1)c1ccccc1` here?
Answer: The Potency was inconclusive: 29.1 µM [rising, single point].

Question: For `CC(=O)Oc1ccc2cc(-c3nc4c(s3)CCc3ccccc3-4)c(=O)oc2c1`, which Potency is on record?
Answer: Its Potency is inconclusive: 14.6 µM [rising, partial curve, poor fit].

Question: For `Cc1cc(C=CC#N)cc(C)c1Nc1nc(Nc2ccc3c(c2)OCO3)c2[nH]cnc2n1`, which Potency is on record?
Answer: Its Potency is active: 18.4 µM.

Question: Which Potency does the source give for `C/C(=N\N=c1/scc(C)n1Cc1ccco1)c1cccc([N+](=O)[O-])c1` here?
Answer: Its Potency is inconclusive: 1.03 µM [cytotoxic, partial curve, poor fit].

Question: Which Potency does the source give for `O=C(Nc1ccc(S(=O)(=O)N2CCOCC2)cc1)c1ccc(CN2CCc3ccccc3C2)cc1` here?
Answer: The Potency was inconclusive: 5.17 µM [cytotoxic, partial curve, poor fit].

Question: With `CC(=O)NC(c1cccs1)c1cc([N+](=O)[O-])c2cccnc2c1O` (centres undefined) as the compound, how does the Potency read?
Answer: The Potency was inconclusive: 18.4 µM [cytotoxic, single point].

Question: With `CCCCCCCN1C2=NCCN2c2ccccc21` as the compound, how does the Potency read?
Answer: Its Potency is inconclusive: 16.4 µM [cytotoxic, single point].

Question: Which Potency does the source give for `O=S(=O)(Cc1ccccc1)Nc1ccc(F)cc1` here?
Answer: The Potency was inconclusive: 0.0366 µM [rising, full curve].

Question: Which Potency does the source give for `Cc1sc2ncnc(N3CCN(S(=O)(=O)c4ccc(C(C)(C)C)cc4)CC3)c2c1C` here?
Answer: The Potency was active: 20.6 µM.

Question: For `COc1ccc(-c2cn3cccnc3n2)cc1NC(=O)c1cc(OC)c(OC)c(OC)c1`, which Potency is on record?
Answer: Its Potency is inconclusive: 10.3 µM [rising, partial curve, poor fit].

Question: For `O=C(c1cccc(F)c1)N1CCN(c2ccc([N+](=O)[O-])c(N3CCCCC3)c2)CC1`, which Potency is on record?
Answer: The Potency was inconclusive: 29.1 µM [cytotoxic, single point].

Question: For `COC(=O)c1ccc(Nc2ncnc3sccc23)cc1`, which Potency is on record?
Answer: The Potency was inconclusive: 4.11 µM [rising, partial curve, poor fit].
